Experimental data from patent publication US7420031B2, “Intracellular delivery of small molecules, proteins, and nucleic acids” (Lonza Walkersville, Inc., priority 2003, dated 2008).
At least one peptide structure holds a part that was inferred or is arguable (an end, a ring closure or a residue).

How the values were obtained:
human dermal fibroblasts = assay: Histochemical staining for β-galactosidase in cells transduced with PTD complex; type: cell-based; details: 50 nM complex with streptavidin-β-galactosidase, 1 hour at 37° C., light microscopy
Description: To determine the efficiency of transduction based on the percentage of cells that receive the reporter protein, cells were assayed by histochemical staining for the reporter protein.
HUVEC and human dermal fibroblast cells were each seeded at 40,000 per well of a 24-well plate and incubated overnight. PTD complexes (SEQ ID NO:7-streptavidin-β-galactosidase or SEQ ID NO:6-streptavidin-β-galactosidase) were added to the wells at a final concentration of 50 nM and incubated for 1 hour at 37° C. The cells were washed 3 times in PBS, fixed, and stained for β-galactosidase using a β-galactosidase staining set (Roche) according to the manufacturer's instructions. Following development of β-galactosidase activity, the cells were washed with PBS and visualized by light microscopy.

293 HEK cells = assay: PTD-mediated transport of streptavidin-β-galactosidase into 293 HEK cells (lysate absorbance at 405 nm); type: cell-based; details: 50 nM complex with streptavidin-β-galactosidase, 30 minutes at 37° C.
Description: To determine the effect of biotin location on transduction efficiency, biotin was added to either the amino terminus or the carboxy terminus of three PTDs. A (Gly)3 linker was added to the amino terminus for N-terminal biotinylated peptides. For C-terminal biotinylation, the last glycine in the C-terminal linker was replaced by lysine. The side chain of lysine was used for the attachment of the biotin group. A peptide with negligible transduction activity (Mi et al., Mol. Ther., 2:339-347, 2000) (SEQ ID NO:6) was used as a negative control. PTDs and β-galactosidase were complexed together with a streptavidin-biotin bridge.
To test for transduction efficiency, 293 HEK cells were seeded into a 96-well plate at approximately 4500 cells/well and incubated overnight. To prepare peptide complexes, equimolar concentrations of biotinylated PTD and streptavidin-crosslinked β-galactosidase were mixed and diluted in cell culture medium. The mixtures were incubated for 30 minutes at 37° C. to allow formation of complexes. Each complex was added to a final concentration of 50 nM and incubated for 30 minutes at 37° C. To assay for β-galactosidase activity, the cells were washed 3 times with PBS and were lysed with 100 μl of assay reagent (Pierce). […] The absorbance at 405 nm was measured on a Wallac Victor spectroluminometer.

## N=C(N)NCCC[C@H](NC(=O)CNC(=O)[C@@H](N)Cc1ccc(O)cc1)C(=O)N[C@@H](CCCCN)C(=O)N[C@@H](CCCCN)C(=O)N[C@@H](CCCNC(=N)N)C(=O)N[C@@H](CCCNC(=N)N)C(=O)N[C@@H](CCC(N)=O)C(=O)N[C@@H](CCCNC(=N)N)C(=O)N[C@@H](CCCNC(=N)N)C(=O)N[C@@H](CCCNC(=N)N)C(=O)NCC(=O)NCC(=O)N[C@@H](CCCCNC(=O)CCCC[C@@H]1SC[C@@H]2NC(=O)N[C@@H]21)C(=O)O [SEQ ID NO:8, Tyr-Gly-Arg-Lys-Lys-Arg-Arg-Gln-Arg-Arg-Arg-Gly-Gly-Lys-Biotin]
Human dermal fibroblasts
  β-galactosidase reporter protein staining of cells: positive
293 HEK cells
  function as a PTD (amount of β-galactosidase in the cell lysate vs negative control SEQ ID NO:6): did not function as a PTD
